From patent US20160067162A1, “PHOTOPROTECTIVE COMPOUNDS, COMPOSITIONS INCLUDING SAME AND USES THEREOF” (UNIVERSITE DE RENNES 1, priority 2013, published 2016)
At least one compound was matched to its structure with a doubt left.

Assay: SPF measurement, Protocol I (Rennes): simplified O/W emulsion, UV spectrum 200-400 nm
Assay type: physicochemical
Method: The SPF measurement is carried out according to the following protocol described in Le Dévéhat F., Malargé A., Couteau C., Coiffard L., Legouin B. “Evaluation of a new UV-filter screening method”, 4th symposium of the AFERP “Biodiversity, chimie des substances naturelles et medicaments” [“Biodiversity, chemistry of natural substances and medicaments”] and 3rd Franco-Pakistani symposium, Besançon (France), Jul. 16-17-18, 2010. A solution of each product dissolved in dimethyl sulfoxide is incorporated at 10% into a simplified emulsion of oil-in-water (O/W) type consisting of liquid paraffin, water and SDS at 10%, the whole mixture taken up in absolute ethanol. The UV spectrum of each solution is recorded between 200 nm and 400 nm in a 10 mm quartz cell on a Uvikon 931 UV-vis spectrophotometer and measured in comparison with a control 10% emulsion solution.
The SPF and UVA-PF values are, for the two protocols, calculated from the following equations: […]
where Eλ is the erythemogenic effect of the radiation at the wavelength λ; Sλ is the spectral solar irradiance at the wavelength λ and Tλ is the spectral transmittance of the product at the wavelength λ, λc is the critical wavelength which corresponds to the wavelength at which 90% of the area under the curve (AUC) is integrated between 290 and 400 nm. The UVA/UVB ratio corresponds more specifically to the ratio of the area under the curve between 315 and 400 nm to the area under the curve between 280 and 315 nm.

CCCCC(CC)COC(=O)C=Cc1ccc(OC)cc1 (stereo not drawn) [Octyl methoxycinnamate (OMC), Octyl methoxycinnamate, reference compound]
Colipa UVA-PF p.I, at 10% (protocol I, product at 10%): 1.63 ± 0.01 | SPF p.I, at 10% (protocol I, product at 10% in simplified O/W emulsion): 10.16 ± 0.02 | UVA/UVB (ratio of area under the curve 315-400 nm to 280-315 nm): 0.32 ± 0.00
